Test results from article PMC4330348.
Results are given in words; binding and its absence hold for the method and conditions named. In cells and extracts the contact can be indirect. A yes stands for co-enrichment or nearness to the bait. Other partners may have been found.

Sequences of proteins named here, by UniProt entry; tags and fusion partners are left off.
UniProt Q61687: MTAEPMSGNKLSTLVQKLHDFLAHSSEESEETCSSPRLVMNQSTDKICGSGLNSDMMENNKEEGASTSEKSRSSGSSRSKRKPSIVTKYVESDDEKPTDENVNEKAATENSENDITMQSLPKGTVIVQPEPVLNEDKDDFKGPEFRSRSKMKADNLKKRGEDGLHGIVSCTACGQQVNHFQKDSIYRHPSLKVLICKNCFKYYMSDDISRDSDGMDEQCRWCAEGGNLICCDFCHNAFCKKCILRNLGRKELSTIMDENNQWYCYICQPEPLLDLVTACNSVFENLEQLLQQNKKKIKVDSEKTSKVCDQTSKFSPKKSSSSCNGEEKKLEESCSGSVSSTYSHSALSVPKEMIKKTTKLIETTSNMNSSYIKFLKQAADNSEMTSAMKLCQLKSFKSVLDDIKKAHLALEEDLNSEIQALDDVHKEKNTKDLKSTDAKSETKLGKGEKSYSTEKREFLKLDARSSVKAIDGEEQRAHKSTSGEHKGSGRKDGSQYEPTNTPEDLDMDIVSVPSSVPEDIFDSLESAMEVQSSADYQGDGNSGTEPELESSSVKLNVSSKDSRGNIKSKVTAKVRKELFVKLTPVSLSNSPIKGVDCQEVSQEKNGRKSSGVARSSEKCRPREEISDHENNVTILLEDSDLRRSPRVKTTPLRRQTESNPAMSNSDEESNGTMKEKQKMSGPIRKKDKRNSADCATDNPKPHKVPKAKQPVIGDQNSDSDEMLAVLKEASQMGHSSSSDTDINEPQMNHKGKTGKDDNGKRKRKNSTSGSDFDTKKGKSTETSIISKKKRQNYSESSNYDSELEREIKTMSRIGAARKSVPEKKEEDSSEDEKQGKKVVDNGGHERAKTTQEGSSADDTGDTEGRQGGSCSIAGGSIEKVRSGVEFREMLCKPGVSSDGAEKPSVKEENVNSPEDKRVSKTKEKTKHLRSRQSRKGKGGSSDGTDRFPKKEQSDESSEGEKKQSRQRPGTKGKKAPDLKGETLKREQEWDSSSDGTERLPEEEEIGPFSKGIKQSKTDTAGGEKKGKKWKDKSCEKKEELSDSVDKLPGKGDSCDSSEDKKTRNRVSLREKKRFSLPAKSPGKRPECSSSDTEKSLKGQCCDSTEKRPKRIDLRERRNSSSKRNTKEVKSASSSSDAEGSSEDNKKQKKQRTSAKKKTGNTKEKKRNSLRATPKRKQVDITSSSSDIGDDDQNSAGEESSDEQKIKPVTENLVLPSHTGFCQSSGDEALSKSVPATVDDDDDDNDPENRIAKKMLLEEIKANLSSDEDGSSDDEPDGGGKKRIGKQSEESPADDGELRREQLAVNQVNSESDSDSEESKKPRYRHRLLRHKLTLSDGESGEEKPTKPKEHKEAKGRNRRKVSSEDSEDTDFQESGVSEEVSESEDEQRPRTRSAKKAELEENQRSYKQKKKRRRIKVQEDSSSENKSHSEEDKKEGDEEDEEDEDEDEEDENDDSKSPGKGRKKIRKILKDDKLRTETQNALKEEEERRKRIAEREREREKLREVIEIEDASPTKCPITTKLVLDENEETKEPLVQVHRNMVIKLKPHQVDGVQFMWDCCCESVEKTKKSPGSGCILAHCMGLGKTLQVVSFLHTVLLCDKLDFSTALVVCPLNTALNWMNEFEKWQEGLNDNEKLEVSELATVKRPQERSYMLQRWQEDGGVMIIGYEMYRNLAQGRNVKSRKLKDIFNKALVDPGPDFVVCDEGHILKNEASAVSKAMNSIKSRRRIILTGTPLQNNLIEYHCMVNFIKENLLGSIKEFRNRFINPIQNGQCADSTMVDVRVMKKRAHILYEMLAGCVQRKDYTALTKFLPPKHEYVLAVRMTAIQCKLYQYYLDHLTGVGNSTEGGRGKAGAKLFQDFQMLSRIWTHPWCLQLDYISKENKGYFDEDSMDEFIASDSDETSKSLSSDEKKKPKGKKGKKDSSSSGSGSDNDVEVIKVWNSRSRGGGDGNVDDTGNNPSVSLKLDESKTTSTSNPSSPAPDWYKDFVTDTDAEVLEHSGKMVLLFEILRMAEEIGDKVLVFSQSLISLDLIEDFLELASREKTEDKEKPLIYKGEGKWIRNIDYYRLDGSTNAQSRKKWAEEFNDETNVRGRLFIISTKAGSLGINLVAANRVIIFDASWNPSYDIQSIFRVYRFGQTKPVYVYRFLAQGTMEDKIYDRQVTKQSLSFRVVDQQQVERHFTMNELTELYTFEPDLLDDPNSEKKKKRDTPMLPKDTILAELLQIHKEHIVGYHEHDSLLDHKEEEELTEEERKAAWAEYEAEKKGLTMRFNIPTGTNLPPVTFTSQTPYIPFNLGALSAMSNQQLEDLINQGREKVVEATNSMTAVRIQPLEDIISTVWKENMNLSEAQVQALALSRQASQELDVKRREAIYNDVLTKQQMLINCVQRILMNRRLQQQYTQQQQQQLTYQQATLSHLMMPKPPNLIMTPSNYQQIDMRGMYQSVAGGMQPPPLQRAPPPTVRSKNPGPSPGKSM

What was measured:
[1] = molecular target: Atrx (mouse (endogenous in MPC11)) (UniProt Q61687); test: affinity purification with mass spectrometry; immunoprecipitation of the endogenous bait with 5 μg antibody on protein G Dynabeads, 4 h, 4°C, 150 mM NaCl, 0.2% Triton X-100 washes; heavy-labelled MPC11 nuclear extracts against light isotype-control IP; SILAC H/L by mass spectrometry
[2] = molecular target: unmodified histone H3 peptide aa1–20 (peptide 1) (UniProt P68431); test: affinity purification with mass spectrometry; biotinylated histone H3 peptides on NeutrAvidin beads; pooled nuclear and MNase-solubilised chromatin extracts of SILAC-labelled MPC11 cells adjusted to 150 mM NaCl, 4°C; washes with 150 mM KCl, 0.2% Triton X-100; heavy pulldowns against a mixed light reference (super-SILAC); beads alone as control; two replicates; only the target purified

B1: Tif1α (protein, UniProt Q64127 1-1051)
chain: MEVAVEKAAAAAAPAGGPAAAAPSGENEAESRQGPDSESGGEASRLNLLDTCAVCHQNIQSRVPKLLPCLHSFCQRCLPAPQRYLMLTAPALGSAETPPPAPAPAPAPGSPAGGPSPFATQVGVIRCPVCSQECAERHIIDNFFVKDTTEVPSSTVEKSNQVCTSCEDNAEANGFCVECVEWLCKTCIRAHQRVKFTKDHTVRQKEEVSPEAVGVTSQRPVFCPFHKKEQLKLYCETCDKLTCRDCQLLEHKEHRYQFIEEAFQNQKVIIDTLITKLMEKTKYIKYTGNQIQNRIIEINQNQKQVEQDIKVAIFTLMVEINKKGKALLHQLESLAKDHRMKLMQQQQEVAGLSKQLEHVMHFSKWAVSSGSSTALLYSKRLITYRLRHLLRARCDASPVTNTTIQFHCDPSFWAQNIINLGSLVIEDKESQPQMPKQNPVVEQSSQPPGGLPSNQLSKFPTQISLAQLRLQHIQQQVMAQRQQVQRRPAPVGLPNPRMQGPIQQPSISHQHPPPRLINFQNHSPKPNGPVLPPYPQQLRYSPSQNVPRQTTIKPNPLQMAFLAQQAIKQWQISSVQAPPTTASSSSSTPSSPTITSAAGYDGKAFSSPMIDLSAPVGGSYNLPSLPDIDCSSTIMLDNIARKDTGVDHAQPRPPSNRTVQSPNSSVPSPGLAGPVTMTSVHPPIRSPSASSVGSRGSSGSSSKPAGADSTHKVPVVMLEPIRIKQENSGPPENYDFPVVIVKQESDEESRPQNTNYPRSILTSLLLNSSQSSASEETVLRSDAPDSTGDQPGLHQENSSNGKSEWSDASQKSPVHVGETRKEDDPNEDWCAVCQNGGELLCCEKCPKVFHLTCHVPTLTNFPSGEWICTFCRDLSKPEVDYDCDVPSHHSEKRKSEGLTKLTPIDKRKCERLLLFLYCHEMSLAFQDPVPLTVPDYYKIIKNPMDLSTIKKRLQEDYCMYTKPEDFVADFRLIFQNCAEFNEPDSEVANAGIKLESYFEELLKNLYPEKRFPKVEFRHEAEDCKFSDDSDDDFVQPRKKRLKSTEDRQLLK
[1]
  binding: binds

B2: Tif1γ (protein, UniProt Q99PP7 1-1142)
chain: MAENKGGGEAESGGGGSGSAPVTAGAAGPTAQEAEPPLAAVLVEEEEEEGGRAGAEGGAAGPDDGGVAAASSSSAPAASVPAASVGSAVPGGAASTPAPAAAPAPAPAPAPAPAPAPAPAPAPGSSSGPPLGPPASLLDTCAVCQQSLQSRREAEPKLLPCLHSFCLRCLPEPERQLSVPIPGGSNGDVQQVGVIRCPVCRQECRQIDLVDNYFVKDTSEAPSSSDEKSEQVCTSCEDNASAVGFCVECGEWLCKTCIEAHQRVKFTKDHLIRKKEDVSESVGTSGQRPVFCPVHKQEQLKLFCETCDRLTCRDCQLLEHKEHRYQFLEEAFQNQKGAIENLLAKLLEKKNYVHFAATQVQNRIKEVNETNKRVEQEIKVAIFTLINEINKKGKSLLQQLENVTKERQMKLLQQQNDITGLSRQVKHVMNFTNWAIASGSSTALLYSKRLITFQLRHILKARCDPVPAANGAIRFHCDPTFWAKNVVNLGNLVIESKPAPGYTPNVVVGQVPPGTNHISKTPGQINLAQLRLQHMQQQVYAQKHQQLQQMRLQQPPAPIPTTTATTQQHPRQAAPQMLQQQPPRLISVQTMQRGNMNCGAFQAHQMRLAQNAARIPGIPRHSAPQYSMMQPHLQRQHSNPGHAGPFPVVSAHNPINPTSPTTATMANANRGPTSPSVTAIELIPSVTNPENLPSLPDIPPIQLEDAGSSSLDNLLSRYISGSHLPPQPTSTMNPSPGPSALSPGSSGLSNSHTPVRPPSTSSTGSRGSCGSSGRTAEKSAHSFKSDQVKVKQEPGTEEEICSFSGAVKQEKTEDGRRSACMLSSPESSLTPPLSTNLHLESELDTLTGLENHVKTEPTDISESCKQSGLSNLVNGKSPIRNLMHRSARIGGDGNSKDDDPNEDWCAVCQNGGDLLCCEKCPKVFHLTCHVPTLLSFPSGDWICTFCRDIGKPEVEYDCDNMQHSKKGKTAQGLSPVDQRKCERLLLYLYCHELSIEFQEPVPVSIPNYYKIIKKPMDLSTVKKKLQKKHSQHYQIPDDFVADVRLIFKNCERFNEMMKVVQVYADTQEINLKGDSEVAKAGKAVALYFEDKLSEIYSDRTFTPLPEFEQDEDDGEVTEDSDEDFIQPRRKRLKSDERPVHIK
[1]
  binding: binds

B3: Sin3a (protein, UniProt Q60520 1-1274)
chain: MKRRLDDQESPVYAAQQRRIPGSTEAFSHQHRVLAPAPPVYEAVSETMQSATGIQYSVAPNYQVSAVPQSSGSHGPAIAAVHSSHHHPTAVQPHGGQVVQSHAHPAPPVAPVQGQQQFQRLKVEDALSYLDQVKLQFGSQPQVYNDFLDIMKEFKSQSIDTPGVISRVSQLFKGHPDLIMGFNTFLPPGYKIEVQTNDMVNVTTPGQVHQIPTHGIQPQPQPPPQHPSQPSSQSAPTPAQPAPQPTAAKVSKPSQLQAHTPASQQTPPLPPYASPRSPPVQPHTPVTISLGTAPSLQNNQPVEFNHAINYVNKIKNRFQGQPDIYKAFLEILHTYQKEQRNAKEAGGNYTPALTEQEVYAQVARLFKNQEDLLSEFGQFLPDANSSVLLSKTTAEKVDSVRNDHGGTVKKPQLNNKPQRPSQNGCQIRRHSGTGATPPVKKKPKLMSLKESSMADASKHGVGTESLFFDKVRKALRSAEAYENFLRCLVIFNQEVISRAELVQLVSPFLGKFPELFNWFKNFLGYKESVHLESFPKERATEGIAMEIDYASCKRLGSSYRALPKSYQQPKCTGRTPLCKEVLNDTWVSFPSWSEDSTFVSSKKTQYEEHIYRCEDERFELDVVLETNLATIRVLEAIQKKLSRLSAEEQAKFRLDNTLGGTSEVIHRKALQRIYADKAADIIDGLRKNPSIAVPIVLKRLKMKEEEWREAQRGFNKVWREQNEKYYLKSLDHQGINFKQNDTKVLRSKSLLNEIESIYDERQEQATEENAGVPVGPHLSLAYEDKQILEDAAALIIHHVKRQTGIQKEDKYKIKQIMHHFIPDLLFAQRGDLSDVEEEEEEEMDVDEATGAPKKHNGVGGSPPKSKLLFSNTAAQKLRGMDEVYNLFYVNNNWYIFMRLHQILCLRLLRICSQAERQIEEENREREWEREVLGIKRDKSDSPAIQLRLKEPMDVDVEDYYPAFLDMVRSLLDGNIDSSQYEDSLREMFTIHAYIAFTMDKLIQSIVRQLQHIVSDEVCVQVTDLYLAENNNGATGGQLNSQTSRSLLESAYQRKAEQLMSDENCFKLMFIQSQGQVQLTVELLDTEEENSDDPVEAERWSDYVERYMSSDTTSPELREHLAQKPVFLPRNLRRIRKCQRGREQQEKEGKEGNSKKTMENVESLDKLECRFKLNSYKMVYVIKSEDYMYRRTALLRAHQSHERVSKRLHQRFQAWVDKWTKEHVPREMAAETSKWLMGEGLEGLVPCTTTCDTETLHFVSINKYRVKYGTVFKAP
[2]
  binding: binds
